Publication doi:10.1101/2020.11.16.385906
These are yes or no findings as the source states them, for the method shown. Binding seen in cells or lysates may run through a third protein. Some binding calls cover weakened binding; strength is not graded here.

Amino acid sequences for entries named in this document (tags omitted). Residues count along the entry.
UniProt Q7L576: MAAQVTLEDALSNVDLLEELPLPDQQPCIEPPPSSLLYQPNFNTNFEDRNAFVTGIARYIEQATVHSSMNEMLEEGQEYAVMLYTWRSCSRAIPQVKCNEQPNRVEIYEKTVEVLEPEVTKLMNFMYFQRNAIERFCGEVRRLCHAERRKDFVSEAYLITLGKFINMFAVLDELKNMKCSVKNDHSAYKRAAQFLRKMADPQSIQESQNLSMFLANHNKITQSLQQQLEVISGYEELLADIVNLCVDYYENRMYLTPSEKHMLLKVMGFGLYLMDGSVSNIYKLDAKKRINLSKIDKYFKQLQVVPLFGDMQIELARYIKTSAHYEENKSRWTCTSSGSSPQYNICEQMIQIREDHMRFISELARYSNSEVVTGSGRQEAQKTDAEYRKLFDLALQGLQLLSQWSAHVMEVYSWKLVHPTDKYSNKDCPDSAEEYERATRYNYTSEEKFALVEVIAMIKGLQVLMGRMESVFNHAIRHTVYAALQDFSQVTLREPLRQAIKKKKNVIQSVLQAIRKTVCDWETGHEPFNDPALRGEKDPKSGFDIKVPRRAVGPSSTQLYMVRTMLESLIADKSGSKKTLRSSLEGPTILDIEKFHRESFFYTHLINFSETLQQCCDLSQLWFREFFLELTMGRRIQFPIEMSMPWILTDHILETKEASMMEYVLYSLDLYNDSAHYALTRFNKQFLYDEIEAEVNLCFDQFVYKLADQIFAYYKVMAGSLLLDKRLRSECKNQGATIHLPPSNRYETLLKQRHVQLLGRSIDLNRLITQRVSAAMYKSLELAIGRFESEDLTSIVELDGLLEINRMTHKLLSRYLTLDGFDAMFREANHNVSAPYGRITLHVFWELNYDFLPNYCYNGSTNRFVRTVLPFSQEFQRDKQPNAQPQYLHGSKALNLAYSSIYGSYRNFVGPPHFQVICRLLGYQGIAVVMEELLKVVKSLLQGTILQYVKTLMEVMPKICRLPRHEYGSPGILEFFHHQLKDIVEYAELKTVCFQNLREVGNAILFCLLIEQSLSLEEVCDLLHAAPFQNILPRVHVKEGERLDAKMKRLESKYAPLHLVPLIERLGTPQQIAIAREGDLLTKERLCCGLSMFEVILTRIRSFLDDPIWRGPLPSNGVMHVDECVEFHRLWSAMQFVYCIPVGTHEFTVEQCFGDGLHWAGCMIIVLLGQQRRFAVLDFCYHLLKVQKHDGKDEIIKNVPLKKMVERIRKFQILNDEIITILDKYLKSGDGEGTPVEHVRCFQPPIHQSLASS
UniProt Q9Y2A7: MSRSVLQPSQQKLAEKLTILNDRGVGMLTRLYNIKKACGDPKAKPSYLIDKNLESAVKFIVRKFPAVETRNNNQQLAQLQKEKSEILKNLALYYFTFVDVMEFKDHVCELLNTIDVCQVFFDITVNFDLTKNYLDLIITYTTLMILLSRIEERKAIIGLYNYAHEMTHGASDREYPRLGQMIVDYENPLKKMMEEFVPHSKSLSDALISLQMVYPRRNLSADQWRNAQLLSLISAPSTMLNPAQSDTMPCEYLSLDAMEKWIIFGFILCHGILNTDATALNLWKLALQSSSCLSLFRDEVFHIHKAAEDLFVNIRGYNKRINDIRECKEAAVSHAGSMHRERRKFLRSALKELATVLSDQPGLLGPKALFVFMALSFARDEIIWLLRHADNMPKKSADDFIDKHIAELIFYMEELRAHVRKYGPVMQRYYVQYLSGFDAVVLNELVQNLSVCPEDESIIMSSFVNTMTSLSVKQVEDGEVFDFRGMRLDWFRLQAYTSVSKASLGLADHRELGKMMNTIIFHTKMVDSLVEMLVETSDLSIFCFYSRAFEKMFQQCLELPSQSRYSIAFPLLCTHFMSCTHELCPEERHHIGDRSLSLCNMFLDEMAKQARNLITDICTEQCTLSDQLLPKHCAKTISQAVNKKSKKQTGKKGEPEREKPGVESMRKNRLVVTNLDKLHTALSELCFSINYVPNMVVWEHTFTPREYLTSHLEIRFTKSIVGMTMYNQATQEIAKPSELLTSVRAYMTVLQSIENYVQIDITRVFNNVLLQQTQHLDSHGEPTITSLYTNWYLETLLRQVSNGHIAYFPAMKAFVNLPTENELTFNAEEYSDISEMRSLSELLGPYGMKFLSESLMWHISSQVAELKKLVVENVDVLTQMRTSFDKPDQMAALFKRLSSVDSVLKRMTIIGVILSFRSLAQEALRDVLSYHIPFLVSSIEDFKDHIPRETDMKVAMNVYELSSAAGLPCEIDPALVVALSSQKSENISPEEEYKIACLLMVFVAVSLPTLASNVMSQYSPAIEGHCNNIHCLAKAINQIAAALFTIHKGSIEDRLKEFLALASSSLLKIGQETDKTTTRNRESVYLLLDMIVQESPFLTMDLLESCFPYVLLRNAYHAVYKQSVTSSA
UniProt Q14C87, residues 31-1099: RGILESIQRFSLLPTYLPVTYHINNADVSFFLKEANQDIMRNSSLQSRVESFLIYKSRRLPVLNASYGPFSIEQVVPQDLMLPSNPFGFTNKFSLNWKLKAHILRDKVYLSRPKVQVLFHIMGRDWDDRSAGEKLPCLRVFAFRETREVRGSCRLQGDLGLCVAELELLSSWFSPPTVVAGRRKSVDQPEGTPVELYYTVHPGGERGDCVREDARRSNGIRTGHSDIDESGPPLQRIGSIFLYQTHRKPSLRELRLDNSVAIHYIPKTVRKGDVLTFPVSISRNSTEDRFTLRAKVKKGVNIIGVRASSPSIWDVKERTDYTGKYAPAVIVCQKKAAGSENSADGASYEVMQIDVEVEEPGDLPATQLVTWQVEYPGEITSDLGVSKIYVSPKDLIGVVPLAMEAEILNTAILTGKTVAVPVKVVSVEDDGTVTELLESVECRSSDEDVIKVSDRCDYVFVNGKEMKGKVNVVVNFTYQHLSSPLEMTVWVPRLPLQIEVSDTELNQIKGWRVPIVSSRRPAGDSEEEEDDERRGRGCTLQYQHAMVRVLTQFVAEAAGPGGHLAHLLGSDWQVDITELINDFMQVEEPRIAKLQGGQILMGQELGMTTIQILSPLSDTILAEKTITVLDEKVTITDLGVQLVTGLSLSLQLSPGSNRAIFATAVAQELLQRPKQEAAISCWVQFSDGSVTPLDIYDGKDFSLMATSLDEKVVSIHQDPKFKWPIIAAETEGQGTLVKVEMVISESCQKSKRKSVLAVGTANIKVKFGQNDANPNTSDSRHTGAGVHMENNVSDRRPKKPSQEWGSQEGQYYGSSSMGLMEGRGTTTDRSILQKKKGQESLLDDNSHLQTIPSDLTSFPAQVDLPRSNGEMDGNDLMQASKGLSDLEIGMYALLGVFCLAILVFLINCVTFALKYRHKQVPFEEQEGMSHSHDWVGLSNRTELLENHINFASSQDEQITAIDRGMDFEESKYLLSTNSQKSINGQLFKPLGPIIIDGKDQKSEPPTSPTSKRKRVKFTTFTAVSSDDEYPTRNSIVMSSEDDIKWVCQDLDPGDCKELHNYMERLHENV

Key:
GFP-tagged SRA1 (human) = GFP-tagged SRA1 (human) (UniProt Q7L576); assay: co-IP
[1] = molecular target: GFP-tagged NAP1 (full length) (human) (UniProt Q9Y2A7); assay: co-IP

binding (GFP-tagged SRA1 (human)): binds
binding [1]: binds
Substance: V5 epitope-tagged human TMEM132D (from UniProt Q14C87 31-1099)
